These are yes or no findings as the source states them, for the method shown. Binding seen in cells or lysates may run through a third protein. Some entries that bind do so weakly or less than the wild type. Sequences can lack the tags named with a protein.

Protein sequences, listed by entry. Tags and fused reporters are not part of them.
UniProt G5EF15: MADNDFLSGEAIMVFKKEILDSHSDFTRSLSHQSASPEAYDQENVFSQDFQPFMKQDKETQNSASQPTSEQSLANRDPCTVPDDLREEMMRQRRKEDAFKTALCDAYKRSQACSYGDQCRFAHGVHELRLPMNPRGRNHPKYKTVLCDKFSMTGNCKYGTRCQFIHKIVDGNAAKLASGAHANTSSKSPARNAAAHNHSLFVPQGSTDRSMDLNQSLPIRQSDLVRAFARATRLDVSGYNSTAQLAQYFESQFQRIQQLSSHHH

In this assay the target is T1, MEG-1::GFP (C. elegans) (UniProt Q21126).
T1 sequence: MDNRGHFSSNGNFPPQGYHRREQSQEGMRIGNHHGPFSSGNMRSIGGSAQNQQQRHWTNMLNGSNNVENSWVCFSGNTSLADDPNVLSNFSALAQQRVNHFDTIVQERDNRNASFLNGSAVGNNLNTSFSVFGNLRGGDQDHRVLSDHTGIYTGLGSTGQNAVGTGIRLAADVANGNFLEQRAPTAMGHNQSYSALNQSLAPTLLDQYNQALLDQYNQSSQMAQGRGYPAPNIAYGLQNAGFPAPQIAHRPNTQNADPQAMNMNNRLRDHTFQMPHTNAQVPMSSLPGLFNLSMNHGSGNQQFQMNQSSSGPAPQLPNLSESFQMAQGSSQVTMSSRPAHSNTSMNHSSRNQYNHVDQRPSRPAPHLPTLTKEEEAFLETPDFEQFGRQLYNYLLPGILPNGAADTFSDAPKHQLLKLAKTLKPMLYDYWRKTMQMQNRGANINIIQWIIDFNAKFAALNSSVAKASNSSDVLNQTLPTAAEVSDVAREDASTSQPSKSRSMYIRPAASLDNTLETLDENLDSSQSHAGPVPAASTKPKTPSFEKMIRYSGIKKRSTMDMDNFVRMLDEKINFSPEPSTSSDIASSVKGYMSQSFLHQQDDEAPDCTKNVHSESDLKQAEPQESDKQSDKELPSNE
Briefly: co-IP.

Take POS-1 (from UniProt G5EF15 1-264): the binding entry is on record as “binds”.

The values above are taken from article doi:10.1101/2022.08.15.504042.
